Data as given in publication PMC11714167.

Protein sequences, listed by entry. Tags and fused reporters are not part of them. Residues count along the entry.
UniProt P30530, residues 26-894: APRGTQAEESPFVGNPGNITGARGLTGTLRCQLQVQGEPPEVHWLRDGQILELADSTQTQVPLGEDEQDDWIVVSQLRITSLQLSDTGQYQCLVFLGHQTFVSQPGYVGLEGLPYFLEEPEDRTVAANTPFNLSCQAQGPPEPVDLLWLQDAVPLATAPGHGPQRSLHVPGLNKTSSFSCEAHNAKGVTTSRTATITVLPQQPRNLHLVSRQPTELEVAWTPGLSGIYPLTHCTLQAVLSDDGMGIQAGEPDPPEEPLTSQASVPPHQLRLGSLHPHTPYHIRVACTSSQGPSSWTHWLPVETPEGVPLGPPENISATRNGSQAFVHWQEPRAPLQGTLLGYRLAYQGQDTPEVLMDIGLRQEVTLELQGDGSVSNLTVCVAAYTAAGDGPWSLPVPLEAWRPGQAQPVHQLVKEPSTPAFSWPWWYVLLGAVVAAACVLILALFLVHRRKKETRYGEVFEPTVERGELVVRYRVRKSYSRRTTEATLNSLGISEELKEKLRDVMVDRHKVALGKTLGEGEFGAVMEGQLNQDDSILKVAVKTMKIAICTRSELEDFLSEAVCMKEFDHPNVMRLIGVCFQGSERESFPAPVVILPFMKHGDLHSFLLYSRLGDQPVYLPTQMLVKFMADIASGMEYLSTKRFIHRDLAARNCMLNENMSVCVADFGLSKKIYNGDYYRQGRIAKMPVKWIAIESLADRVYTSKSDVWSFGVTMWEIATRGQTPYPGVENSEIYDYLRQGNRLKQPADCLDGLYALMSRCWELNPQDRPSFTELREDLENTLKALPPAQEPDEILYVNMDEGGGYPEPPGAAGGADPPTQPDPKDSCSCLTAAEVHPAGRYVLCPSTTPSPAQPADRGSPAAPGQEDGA
UniProt P19474: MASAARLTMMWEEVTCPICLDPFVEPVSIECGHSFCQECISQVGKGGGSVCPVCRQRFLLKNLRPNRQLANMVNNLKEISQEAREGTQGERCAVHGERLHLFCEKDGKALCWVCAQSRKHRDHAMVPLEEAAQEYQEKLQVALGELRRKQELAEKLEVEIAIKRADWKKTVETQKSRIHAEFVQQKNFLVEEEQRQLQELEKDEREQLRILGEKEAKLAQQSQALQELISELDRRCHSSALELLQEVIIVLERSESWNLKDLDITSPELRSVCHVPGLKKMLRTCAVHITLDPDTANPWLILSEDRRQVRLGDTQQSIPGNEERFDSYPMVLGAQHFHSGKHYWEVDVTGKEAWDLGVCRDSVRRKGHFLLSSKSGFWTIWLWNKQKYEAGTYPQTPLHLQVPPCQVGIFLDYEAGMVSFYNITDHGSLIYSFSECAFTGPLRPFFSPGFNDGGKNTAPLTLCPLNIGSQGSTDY
UniProt Q13263: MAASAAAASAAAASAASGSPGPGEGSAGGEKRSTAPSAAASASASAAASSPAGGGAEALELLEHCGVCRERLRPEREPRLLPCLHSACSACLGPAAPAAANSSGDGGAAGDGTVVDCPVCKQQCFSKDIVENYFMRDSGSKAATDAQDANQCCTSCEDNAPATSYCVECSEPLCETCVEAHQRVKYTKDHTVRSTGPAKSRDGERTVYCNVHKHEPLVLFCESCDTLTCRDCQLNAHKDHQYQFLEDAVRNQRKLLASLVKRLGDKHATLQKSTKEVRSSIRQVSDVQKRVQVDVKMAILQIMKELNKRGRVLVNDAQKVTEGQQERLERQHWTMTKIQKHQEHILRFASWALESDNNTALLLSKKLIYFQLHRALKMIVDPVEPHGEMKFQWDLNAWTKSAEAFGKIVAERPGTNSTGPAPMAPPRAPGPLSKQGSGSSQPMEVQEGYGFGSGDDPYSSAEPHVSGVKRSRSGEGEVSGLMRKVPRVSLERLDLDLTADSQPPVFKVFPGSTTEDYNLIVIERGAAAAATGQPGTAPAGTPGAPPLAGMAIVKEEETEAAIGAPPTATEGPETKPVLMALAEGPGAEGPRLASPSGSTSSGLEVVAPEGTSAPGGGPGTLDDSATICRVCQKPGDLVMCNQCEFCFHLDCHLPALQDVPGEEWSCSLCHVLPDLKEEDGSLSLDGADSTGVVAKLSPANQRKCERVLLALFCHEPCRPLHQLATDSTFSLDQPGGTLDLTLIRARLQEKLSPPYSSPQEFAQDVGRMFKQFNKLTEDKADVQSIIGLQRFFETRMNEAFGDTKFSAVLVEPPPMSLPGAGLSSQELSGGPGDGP

Target: AXL (endogenous) (human (endogenous in 786-O, 769-P, Caki-1)) (UniProt P30530)
Assay: affinity purification with mass spectrometry; immunoprecipitation from STAMBPL1 KD 786-O cell lysate (AXL immunoprecipitation complex by results and legend; anti-STAMBPL1 or normal rabbit IgG by the methods), protein A/G magnetic beads, SDS-PAGE, Coomassie, in-gel trypsin digestion, nano-UPLC timsTOF Pro2

binding	Substance
binds	TRIM21 (endogenous) (from UniProt P19474 1-475) (enzyme)
binds	TRIM28 (endogenous) (from UniProt Q13263 1-835) (enzyme)

No constants are given. Whether binding was seen depends on the method and setting. In cells and extracts the contact can be indirect. These calls come from enrichment with a bait or labelling near it, and not all partners need be listed.
